We go through 38 molecules from PubChem BioAssay AID2685 (National Center for Advancing Translational Sciences (NCATS), 2010).

One may read the AC50 as the concentration giving half of the maximal activity seen. A higher AC50 goes with weaker potency.

This test is described as follows: qHTS Assay for Lipid Storage Modulators in Drosophila S3 Cells.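 As to cell number change: cells counted by Cell Tracker Red CMTPX staining in the red channel.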 The note with it: BODIPY lipid droplet fluorescence, 18-24 h; for cell number change: measured here: cell count max response, cells fed with added oleic acid. The essentials:
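Drosophila S3 cells got compounds at several concentrations plus oleic acid (400 uM solution). Laser-scanning cytometry with 488 nm excitation read lipid droplets at 500-530 nm and cells at 575-640 nm. Percent activity was relative to 20 uM Triacsin C.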

Where [1] appears, read: measured here: lipid fluorescence (Fed channel) AC50, cells fed with added oleic acid.
Where [2] appears, read: measured here: cell number channel AC50, cells fed with added oleic acid.

The list shows a part of the results. These are further read-outs of the screen, such as a control signal, another cell line or another target. No call is given for them. Compounds called inactive in the main read-out are mostly missing here. Potencies come from curve fits of mixed quality, noted in brackets.

Regarding `O=C(CNC(=O)C1COc2ccccc2O1)Nc1cc(Cl)ccc1Cl` (stereo not drawn), the cell number change is -25%.

As to `CCN(CC)S(=O)(=O)c1cccc(-c2nnc(SCC(=O)NC3CCCCCCC3)n2N)c1`, the cell number change came out at 11.3%. In addition, the AC50 under setting [1] is 11.6 µM [rising, partial curve].

For `CC(C)c1[nH]nc2c1C(c1ccc(OC(=O)c3ccco3)cc1)C(C#N)=C(N)O2` (stereo not drawn), the cell number change is -6.58%. Also, the AC50 under setting [1] is 6.51 µM [rising, single point].

On to `CCOc1ccc(CN(C)C(=O)Cc2c[nH]c3ccccc23)cc1`, for which the cell number change stood at 18.4%. Further, the AC50 under setting [1] was 5.8 µM [rising, partial curve, poor fit].

As for `Cc1cccc(NC(=O)COc2cccc3c2CCN(C)C3=O)c1C`, the cell number change is 34.5%. The AC50 under setting [2] was 20.6 µM [rising, single point]. The AC50 under setting [1] was 18.4 µM [rising, single point].

As to `CC1=CC2=NC(=O)/C(=C\c3cccn3CCOc3ccccc3)C(=N)N2O1`, the cell number change is -7.04%. Besides, under setting [1], the AC50 was 3.66 µM [rising, single point].

As for `CC1c2cc3c(cc2CCN1C(=O)c1ccc(Br)cc1)OCCCO3` (stereo not drawn), the cell number change was -12%. Under setting [1], the AC50 is 0.58 µM [rising, single point].

For `COc1ccc(Cl)cc1C(=O)CSc1nnnn1C1CCCCC1`, under setting [1], the AC50 was 4.61 µM [falling, single point].

As to `Cc1ccccc1OCC(=O)NCC(c1cccs1)N1CCOCC1` (stereo not drawn), the cell number change was 53.5%. For the same molecule, the AC50 under setting [2] was 1.84 µM [rising, partial curve].

As for `CCOc1ccccc1NC(=S)NC(=O)CCCOc1ccc(Cl)cc1Cl`, the cell number change came out at 14.9%. For the same molecule, under setting [1], the concentration at half-maximal activity (AC50) was 0.651 µM [rising, full curve, poor fit].

Turning to `O=C(O)CN1C(=O)SC(Nc2ccccc2C(=O)O)C1=O` (stereo not drawn), the cell number change is -21.8%. The AC50 under setting [2] was 0.0651 µM [falling, full curve, poor fit]. Besides, under setting [1], the concentration at half-maximal activity (AC50) was 0.366 µM [falling, full curve].

Take `CCc1ccc(NC(=O)CSc2nnc(CC)c(CC)n2)cc1`: the cell number change was determined as 93.2%. For the same molecule, the AC50 under setting [2] is 0.731 µM [rising, single point].

With `CC(C)c1ccc(S(=O)(=O)N2CCN(C(=O)CN3C(=O)NC4(CCCCC4)C3=O)CC2)cc1`, the cell number change is -13.5%.

For `O=C(NC1CCCC1)C(c1ccccc1)N(C(=O)c1csnn1)c1ccccc1F` (stereo not drawn), the cell number change is -17.1%.

For the molecule `CCS(=O)(=O)NCc1ccc2[nH]c3c(c2c1)CCCC3`, the cell number change was determined as 73.4%. Further, the AC50 under setting [2] was 14.6 µM [rising, partial curve]. For the same molecule, the AC50 under setting [1] was 18.4 µM [rising, partial curve].

With `C=C(C)c1cccc(C(C)(C)NC(=O)NCc2ccc(OC)cc2)c1`, the cell number change is 2.73%. Moreover, the AC50 under setting [1] was 6.51 µM [falling, partial curve, poor fit].

As for `COc1ccccc1CNC(=O)COc1ccc([N+](=O)[O-])cc1`, the cell number change came out at 38.2%. Moreover, under setting [1], the AC50 was 0.82 µM [rising, partial curve].

As for `COc1ccc(-n2c(SCC(=O)N3CCOCC3)nc(O)c(Cc3ccccc3)c2=O)cc1`, the cell number change turned out to be 11.2%. Moreover, the AC50 under setting [2] is 1.84 µM [falling, partial curve]. Besides, the AC50 under setting [1] was 29.1 µM [falling, single point].

Turning to `O=C(O)c1ccc(O)cc1O`, the cell number change is 0.113%. Besides, the AC50 under setting [1] was 1.16 µM [rising, single point].

With `C=CCn1c(SCc2csc(C)n2)nc2sc3c(c2c1=O)CCCC3`, the AC50 under setting [2] is 0.731 µM [rising, single point].

For `CN(C)/C=C1\N=C(c2cccs2)OC1=O`, the cell number change was 2.71%. In addition, the AC50 under setting [1] is 18.4 µM [rising, partial curve].

For `COc1ccc2c(c1)c1ncn(CCc3ccccc3)c(=O)c1n2C`, the cell number change is 21.4%. The AC50 under setting [2] was 0.103 µM [rising, full curve]. Also, the AC50 under setting [1] is 0.116 µM [rising, full curve, poor fit].

`CCCCn1c(SCc2nc3ccccc3s2)nc2ccccc2c1=O`: the cell number change is 1.45%. Besides, the AC50 under setting [1] was 1.84 µM [rising, partial curve].

On to `CCc1cccc2c1NC(=O)C2(O)CC(=O)c1cccs1` (stereo not drawn), for which the cell number change was determined as 22.6%. In addition, under setting [2], the AC50 was 3.66 µM [rising, single point]. Further, under setting [1], the AC50 is 7.31 µM [rising, partial curve].

On to `CCN(Cc1nc(-c2ccccc2)no1)C(=O)c1ccoc1C`, for which the cell number change was -10.5%. Under setting [1], the AC50 is 2.82 µM [rising, partial curve].

For `COc1ccccc1C(=O)Nc1ccc(C(=O)N2CCCC2)cc1`, the cell number change came to 4.49%. Further, under setting [2], the AC50 is 0.731 µM [rising, partial curve, poor fit]. For the same molecule, the AC50 under setting [1] was 3.66 µM [rising, partial curve].

Turning to `Cc1nc(C)n(C(C)CNS(=O)(=O)c2ccc(C)c(C)c2)n1` (stereo not drawn), the cell number change is 9.66%. In addition, the AC50 under setting [1] was 6.51 µM [rising, single point].

For the molecule `O=C(Cc1cccs1)N1CCN(S(=O)(=O)c2cccc([N+](=O)[O-])c2)CC1`, the cell number change is 39.7%. The AC50 under setting [2] was 32.6 µM [rising, single point]. The AC50 under setting [1] was 29.1 µM [rising, single point].

`Cn1c2ccccc2c2cc(/C=N/NC(=O)c3cc(O)cc(O)c3)ccc21`: the cell number change was -27.9%. The AC50 under setting [1] is 28.2 µM [falling, single point].

Turning to `COc1ccc(S(=O)(=O)N2CCCCCC2)cc1C(=O)N(C)CC(=O)Nc1c(Cl)cccc1Cl`, the cell number change was 24.9%.

On to `COc1cccc(NC(=O)CSc2ccc3nnc(-c4ccncc4)n3n2)c1`, for which the cell number change was -14.7%. In addition, the AC50 under setting [1] was 0.00411 µM [rising, full curve, poor fit].

With `O=C(NCc1ccc2c(c1)OCO2)c1ccco1`, the cell number change was determined as 32.2%.

`O=C(CSc1nc(O)c(C2CCCCC2)c(=O)[nH]1)Nc1ccc(Cl)cc1`: the AC50 is 0.0146 µM [falling, full curve, poor fit] under setting [2] and 18.4 µM [falling, partial curve] under setting [1].

As for `O=C(COC(=O)c1ccc2ccccc2c1O)NCc1ccccc1`, the cell number change is -21.5%. The AC50 under setting [2] was 3.26 µM [falling, partial curve, poor fit].

Turning to `Cc1[nH]nc(N=CC2=C(O)CC(c3ccco3)CC2=O)c1-c1ccc(Cl)cc1` (stereo not drawn), the cell number change was 40.7%. Moreover, the AC50 under setting [2] was 18.4 µM [rising, single point]. Moreover, the AC50 under setting [1] was 0.13 µM [falling, full curve, poor fit].

Regarding `COc1cc(CNc2cccc3[nH]c(C(F)(F)F)nc23)cc(OC)c1`, the cell number change turned out to be 5.9%. In addition, under setting [1], the AC50 is 6.51 µM [falling, single point].

As for `CCNC(=O)NC(=O)C(C)Sc1nc2ccccc2n1CC(C)C` (stereo not drawn), the cell number change is -5.98%.

`CC(C)(C)c1cc(C(=O)NCC(=O)OCC(=O)c2cccc([N+](=O)[O-])c2)cc(C(C)(C)C)c1`: the cell number change is -25.3%. In addition, under setting [2], the AC50 was 0.13 µM [falling, full curve]. Moreover, the AC50 under setting [1] was 0.731 µM [falling, full curve].
